{"source": "paper PMC8769378", "about": "“Underlining the Importance of Peripheral Protic Functional Groups to Enhance the Proton Exchange of Gd-Based MRI Contrast Agents” (Inorganic Chemistry, 2021)", "key": {"[1]": {"set-up": "method as in PMID 34123071", "details": "20 MHz, 0.15 M NaCl, 298 K ref 7; cited from earlier work"}, "[2]": {"experiment": "Fit of relaxivity vs pH profiles: proton exchange kinetic and relaxation parameters", "type": "physicochemical", "details": "longitudinal relaxation time of the −OH proton; 20 MHz, 0.15 M NaCl, 298 K", "experimental": "At pH >3, the r1 values of GdL2 decrease with the increase of pH from 6.6 mM^–1 s^–1 to reach a plateau of 5.1 mM^–1 s^–1 around pH = 7.5. A further increase of the pH results in the slight increase of r1 reaching a maximum around pH = 9.5. Finally, at pH >9.5, another small decrease in r1 is observed. On the other hand, in the case of GdL1, the r1 values are independent from the pH in the range 4.0–7.5, whereas at pH >8.0, r1 increases up to 5.2 mM^–1 s^–1. The r1 values of GdL1 were measured in the pH range 4–10 in order to avoid the hydrolysis of the methyl ester. […] Then, the overall relaxivity, r1, is given by eq 1: [drawing 1] 1 where r1^is, r1^os, and r1^pr are the relaxivity components due to the inner and outersphere water molecules and the −OH group, respectively. r1^pr can be expressed as follows:[26]−[28] [drawing 2] 2 […]\nProton relaxation measurements (1/T1) and the resulting 1/T1 NMRD profiles were measured on a fast-field cycling (FFC) Stelar SmarTracer relaxometer over a continuum of magnetic field strengths from 0.000 24 to 0.25 T (corresponding to 0.01–10 MHz proton Larmor frequencies). […] Furthermore, the real temperature inside the probe head was additionally monitored by a Fluke 52 k/j digital thermometer (Fluke, Zürich, Switzerland). The gadolinium concentration was determined by measuring the bulk magnetic susceptibility shifts of the t-BuOH ^1H NMR signal. […]"}}, "note": "Where two headings read alike, the source gives them in different places."}
{"compound": "NC(=O)[C@H](O)CN1CCN(CC(=O)[O-])CCN(CC(=O)[O-])CCN(CC(=O)[O-])CC1.[Gd+3]", "note": "[GdHPADO3A]", "values": [{"measurement": "T1^H × 10^6", "setting": "[1]", "value": 5.6, "unit": "s"}]}
{"compound": "CC(O)CN1CCN(CC(=O)[O-])CCN(CC(=O)[O-])CCN(CC(=O)[O-])CC1.[Gd+3]", "note": "(stereo not drawn) [GdHPDO3A]", "values": [{"measurement": "T1^H × 10^6", "setting": "[1]", "value": 5.0, "unit": "s"}]}
{"compound": "O=C([O-])CN1CCN(CC(=O)[O-])CCN(CC(O)C(=O)O)CCN(CC(=O)[O-])CC1.[Gd+3]", "note": "(stereo not drawn) [GdL2]", "values": [{"measurement": "T1^H × 10^6", "setting": "[2]", "value": "8.5 ± 0.1", "unit": "s"}]}
